Test results published in PMC5607100.

Protein sequences, listed by entry. Tags and fused reporters are not part of them.
UniProt P05030: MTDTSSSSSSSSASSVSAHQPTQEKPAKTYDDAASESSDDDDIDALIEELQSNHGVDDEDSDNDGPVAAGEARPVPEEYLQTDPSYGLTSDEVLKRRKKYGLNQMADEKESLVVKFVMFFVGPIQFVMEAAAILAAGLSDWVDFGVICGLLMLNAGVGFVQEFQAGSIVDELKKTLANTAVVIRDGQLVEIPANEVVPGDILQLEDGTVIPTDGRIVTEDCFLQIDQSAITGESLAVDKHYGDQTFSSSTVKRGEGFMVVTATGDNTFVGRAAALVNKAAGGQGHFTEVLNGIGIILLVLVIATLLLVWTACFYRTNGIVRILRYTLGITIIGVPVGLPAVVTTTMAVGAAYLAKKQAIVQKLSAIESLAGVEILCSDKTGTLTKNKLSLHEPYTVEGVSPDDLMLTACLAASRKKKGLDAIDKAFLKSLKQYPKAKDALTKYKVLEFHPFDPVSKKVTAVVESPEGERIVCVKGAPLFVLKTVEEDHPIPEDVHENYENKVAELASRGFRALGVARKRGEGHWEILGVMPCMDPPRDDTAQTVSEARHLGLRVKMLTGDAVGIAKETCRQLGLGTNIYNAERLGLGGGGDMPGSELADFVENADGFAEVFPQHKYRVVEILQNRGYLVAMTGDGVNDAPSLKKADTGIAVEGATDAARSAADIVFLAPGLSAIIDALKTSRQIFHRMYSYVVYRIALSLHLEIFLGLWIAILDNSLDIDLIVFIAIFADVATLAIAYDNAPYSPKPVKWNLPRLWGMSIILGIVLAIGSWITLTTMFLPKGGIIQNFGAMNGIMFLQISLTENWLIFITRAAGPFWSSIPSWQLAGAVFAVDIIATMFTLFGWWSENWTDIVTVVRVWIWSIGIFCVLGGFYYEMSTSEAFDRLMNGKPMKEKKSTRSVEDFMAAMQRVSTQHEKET
UniProt P53173: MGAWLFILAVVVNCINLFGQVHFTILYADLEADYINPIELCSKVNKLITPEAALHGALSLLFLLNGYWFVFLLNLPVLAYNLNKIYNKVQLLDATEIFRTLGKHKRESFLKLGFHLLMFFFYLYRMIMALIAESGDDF

T1: HA‐tagged Ydl121c (Exp1) (S. cerevisiae) (UniProt Q07541)
T1 sequence: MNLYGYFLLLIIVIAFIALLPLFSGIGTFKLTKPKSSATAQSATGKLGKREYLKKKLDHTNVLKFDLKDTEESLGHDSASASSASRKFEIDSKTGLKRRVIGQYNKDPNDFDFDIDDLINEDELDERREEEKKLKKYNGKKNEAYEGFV


Target: T1, HA‐tagged Ydl121c (Exp1) (S. cerevisiae)
Assay: affinity purification with mass spectrometry; HA-tagged Exp1 captured on monoclonal anti-HA agarose for 1 hour from cryo-ground yeast solubilised in 1% digitonin, 50 mM Tris/Cl, 150 mM NaCl, pH 7.5; 3 washes; LC-MS/MS; intensities compared with a WT (BY4741) control

Row | Molecule | binding
1 | Pma1, plasma membrane H^+‐ATPase (from UniProt P05030 1-918) | binds
2 | Erv14 (from UniProt P53173 1-138) | binds
3 | Sec72 (protein, UniProt P39742 1-193) MVTLEYNANSKLITASDAVVALSTETNIDQINVLTTSLIGETNPNFTPQPNEALSKMIKGLFESGMKNLQQKKLNEALKNVSLAIEMAQRKRAPWEAFAIQLPELHFMLRSKIDLCLILGKHLEALQDLDFLLGTGLIQPDVFVRKADCLLKLRQWEEARATCERGLALAPEDMKLRALLIETARNLAEYNGE | binds
4 | Snd3 (protein, UniProt P38264 1-188) MNPQVSNIIIMLVMMQLSRRIDMEDPTIIMYIRILYCSSIGISWIIYQMARKRIVAKNDMTTMKYVEPGNAMSGEGEKLQVTTVRDYDLKEIDSAIKSIYTGMAMMGFMHLYLKYTNPLFMQSISPVKSALEHNEVKIHLFGKPATGDLKRPFKAPSLFGGMGQTGPKTDKKSIEEAERAGNAGVKAE | binds
5 | Sss1 (protein, UniProt P35179 1-80) MARASEKGEEKKQSNNQVEKLVEAPVEFVREGTQFLAKCKKPDLKEYTKIVKAVGIGFIAVGIIGYAIKLIHIPIRYVIV | binds
6 | Sec63 (protein, UniProt P14906 1-663) MPTNYEYDEASETWPSFILTGLLMVVGPMTLLQIYQIFFGANAEDGNSGKSKEFNEEVFKNLNEEYTSDEIKQFRRKFDKNSNKKSKIWSRRNIIIIVGWILVAILLQRINSNDAIKDAATKLFDPYEILGISTSASDRDIKSAYRKLSVKFHPDKLAKGLTPDEKSVMEETYVQITKAYESLTDELVRQNYLKYGHPDGPQSTSHGIALPRFLVDGSASPLLVVCYVALLGLILPYFVSRWWARTQSYTKKGIHNVTASNFVSNLVNYKPSEIVTTDLILHWLSFAHEFKQFFPDLQPTDFEKLLQDHINRRDSGKLNNAKFRIVAKCHSLLHGLLDIACGFRNLDIALGAINTFKCIVQAVPLTPNCQILQLPNVDKEHFITKTGDIHTLGKLFTLEDAKIGEVLGIKDQAKLNETLRVASHIPNLKIIKADFLVPGENQVTPSSTPYISLKVLVRSAKQPLIPTSLIPEENLTEPQDFESQRDPFAMMSKQPLVPYSFAPFFPTKRRGSWCCLVSSQKDGKILQTPIIIEKLSYKNLNDDKDFFDKRIKMDLTKHEKFDINDWEIGTIKIPLGQPAPETVGDFFFRVIVKSTDYFTTDLDITMNMKVRDSPAVEQVEVYSEEDDEYSTDDDETESDDESDASDYTDIDTDTEAEDDESPE | binds
7 | Sec28 (protein, UniProt P40509 1-296) MDYFNIKQNYYTGNFVQCLQEIEKFSKVTDNTLLFYKAKTLLALGQYQSQDPTSKLGKVLDLYVQFLDTKNIEELENLLKDKQNSPYELYLLATAQAILGDLDKSLETCVEGIDNDEAEGTTELLLLAIEVALLNNNVSTASTIFDNYTNAIEDTVSGDNEMILNLAESYIKFATNKETATSNFYYYEELSQTFPTWKTQLGLLNLHLQQRNIAEAQGIVELLLSDYYSVEQKENAVLYKPTFLANQITLALMQGLDTEDLTNQLVKLDHEHAFIKHHQEIDAKFDELVRKYDTSN | binds

Results are given in words; binding and its absence hold for the method and conditions named. Binding seen in cells or lysates may run through a third protein. A yes stands for co-enrichment or nearness to the bait. Other partners may have been found. Tags and fused reporters may be left off the sequences shown.
